Some entries share one result that the patent states for a list of compounds.
Biological target: T1, IL-4 (Homo sapiens, UniProt P05112)
T1 construct: purchased Acros Biosystems IL4-H4218; host or cells: HEK-293
T1 sequence (P05112 25-153): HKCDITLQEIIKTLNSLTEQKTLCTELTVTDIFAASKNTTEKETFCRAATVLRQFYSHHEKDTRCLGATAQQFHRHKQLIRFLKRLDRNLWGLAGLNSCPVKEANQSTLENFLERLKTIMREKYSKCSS
Assay: HEK-Blue IL-4/IL-13 reporter assay, IL-4 inhibition
Format: cell-based
Details: 10 μM, IL-4, HEK Blue IL-4/IL-13 reporter assay
Description: HEK-Blue IL-4/IL-13 Inhibition assay. HEK-Blue IL-4/IL-13 reporter cell lines were purchased from Invivogen and cultured in DMEM with 10% Heat Inactivated Fetal Bovine Serum (FBS), 100 U/ml-100 μg/ml Pen-Strep, 10 μg/ml blasticidin, 100 μg/ml Normocin and 100 μg/ml Zeocin. Cells were tested for secreted embryonic alkaline phosphatase (SEAP) production induced by IL-4 alone prior to small molecule screening.
22.5 μl of small molecule in DMEM 4% DMSO was added to 22.5 μl of 1 ng/ml IL-4 in DMEM in a non-binding 96-well reaction plate for 30 minutes at room temperature. The reaction plate was further incubated for 30-60 min at 37° C. HEK-Blue IL-4/IL-13 reporter cell line was used between passages 11-17. […] Measurements were done in triplicate. The plate was incubated for ˜22-24 hours at 37° C./5% CO2. Quanti-Blue dye was prepared as per the manufacturer's recommendation and 160 μl was dispensed in each well of a 96-well plate (avoid edges to avoid evaporation), 40 μl of cell supernatant was added to the same plate and incubated for 3 hours at 37° C./5% CO2. Optical density was then measured at 650 nm using Molecular Devices SpectraMax M5 Microplate reader. Data was analyzed and plotted using GraphPad Prism 9.2.0.

`N#CC1C(=N)N=C(c2ccc(Br)cc2)C=C1c1ccc(O)c(O)c1` (stereo not shown) [Compound 3, 6-(4-bromophenyl)-4-(3,4-dihydroxyphenyl)-2-imino-2,3-dihydropyridine-3-carbonitrile] was tested. Which “% Inhibition” value did it give?
The value was over 80%.

Source: patent US20250313530A1, “SMALL MOLECULE INHIBITORS OF INTERLEUKIN-4 AND USES THEREOF” (Trustees of Boston University, priority 2024, published 2025)
